For experiment [1], the target named is Ecdysoneless (ECD) protein (human (endogenous in MCF-10A)) (UniProt O95905). Description: co-IP; IP with anti-ECD antibody from lysates of MCF-10A cells treated with thapsigargin or left untreated (CHAPS buffer: 0.3% CHAPS, 20 mM Tris-HCl pH 7.4, 120 mM NaCl, 10% glycerol, 5 mM EDTA); Western blotting. In general terms: In western blotting, separated proteins are transferred to a membrane and probed.

By UniProt entry, the sequences of proteins in these tests, tags left out. Residues count along the entry.
UniProt O95905: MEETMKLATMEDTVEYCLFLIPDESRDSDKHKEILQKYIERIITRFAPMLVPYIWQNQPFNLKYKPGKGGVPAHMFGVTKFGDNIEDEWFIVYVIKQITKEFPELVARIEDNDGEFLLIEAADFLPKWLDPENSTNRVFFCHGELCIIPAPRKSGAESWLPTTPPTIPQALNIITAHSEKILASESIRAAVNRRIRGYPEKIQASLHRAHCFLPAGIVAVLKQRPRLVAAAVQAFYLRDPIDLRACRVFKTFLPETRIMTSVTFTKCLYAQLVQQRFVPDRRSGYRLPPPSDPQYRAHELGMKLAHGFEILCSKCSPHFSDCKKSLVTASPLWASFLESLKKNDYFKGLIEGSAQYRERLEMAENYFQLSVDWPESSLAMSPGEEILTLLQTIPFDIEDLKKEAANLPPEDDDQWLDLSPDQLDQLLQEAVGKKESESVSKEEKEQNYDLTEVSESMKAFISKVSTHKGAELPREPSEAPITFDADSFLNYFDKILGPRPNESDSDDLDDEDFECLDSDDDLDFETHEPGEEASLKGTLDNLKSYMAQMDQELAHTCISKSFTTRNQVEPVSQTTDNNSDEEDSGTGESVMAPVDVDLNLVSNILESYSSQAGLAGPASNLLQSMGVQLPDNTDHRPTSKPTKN
UniProt P11021, residues 19-654: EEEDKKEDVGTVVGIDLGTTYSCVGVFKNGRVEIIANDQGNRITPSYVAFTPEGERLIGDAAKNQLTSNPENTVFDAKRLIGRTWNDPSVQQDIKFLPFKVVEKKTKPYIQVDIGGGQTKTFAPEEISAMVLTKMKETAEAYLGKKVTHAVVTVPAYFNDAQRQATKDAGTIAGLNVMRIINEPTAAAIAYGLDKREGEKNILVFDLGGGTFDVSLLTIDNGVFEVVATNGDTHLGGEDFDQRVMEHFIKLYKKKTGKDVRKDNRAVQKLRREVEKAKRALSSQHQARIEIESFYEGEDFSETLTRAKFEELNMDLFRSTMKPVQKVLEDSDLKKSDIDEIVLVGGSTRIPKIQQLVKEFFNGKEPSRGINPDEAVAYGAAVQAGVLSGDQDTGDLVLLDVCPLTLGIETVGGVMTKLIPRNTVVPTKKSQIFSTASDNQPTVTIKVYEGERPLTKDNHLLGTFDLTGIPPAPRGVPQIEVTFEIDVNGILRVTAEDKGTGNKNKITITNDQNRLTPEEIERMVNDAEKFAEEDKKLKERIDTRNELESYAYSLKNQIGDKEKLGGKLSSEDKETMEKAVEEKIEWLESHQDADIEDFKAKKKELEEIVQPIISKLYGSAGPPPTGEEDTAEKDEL

For experiment [2] the target is unchanged. Description: proximity ligation; MCF-10A cells fixed with 3% PFA, stained with mouse anti-ECD and rabbit antibodies to the partner, DuoLink plus and minus probes; red dots indicate interactions.

Results are given in words; binding and its absence hold for the method and conditions named. In cells and extracts the contact can be indirect. Some entries that bind do so weakly or less than the wild type.

One substance from article PMC5574048 can be followed below.

With GRP78 (from UniProt P11021 19-654), the binding entry in experiment [1] and in experiment [2] was “binds” in each case.
